Test results: the supplement of paper PMC10849652
Some of the results follow.

Amino acid sequences for entries named in this document (tags omitted). A change or cut given only in a name is not applied to a line headed by its entry.
UniProt Q13144, whole entry, looked up: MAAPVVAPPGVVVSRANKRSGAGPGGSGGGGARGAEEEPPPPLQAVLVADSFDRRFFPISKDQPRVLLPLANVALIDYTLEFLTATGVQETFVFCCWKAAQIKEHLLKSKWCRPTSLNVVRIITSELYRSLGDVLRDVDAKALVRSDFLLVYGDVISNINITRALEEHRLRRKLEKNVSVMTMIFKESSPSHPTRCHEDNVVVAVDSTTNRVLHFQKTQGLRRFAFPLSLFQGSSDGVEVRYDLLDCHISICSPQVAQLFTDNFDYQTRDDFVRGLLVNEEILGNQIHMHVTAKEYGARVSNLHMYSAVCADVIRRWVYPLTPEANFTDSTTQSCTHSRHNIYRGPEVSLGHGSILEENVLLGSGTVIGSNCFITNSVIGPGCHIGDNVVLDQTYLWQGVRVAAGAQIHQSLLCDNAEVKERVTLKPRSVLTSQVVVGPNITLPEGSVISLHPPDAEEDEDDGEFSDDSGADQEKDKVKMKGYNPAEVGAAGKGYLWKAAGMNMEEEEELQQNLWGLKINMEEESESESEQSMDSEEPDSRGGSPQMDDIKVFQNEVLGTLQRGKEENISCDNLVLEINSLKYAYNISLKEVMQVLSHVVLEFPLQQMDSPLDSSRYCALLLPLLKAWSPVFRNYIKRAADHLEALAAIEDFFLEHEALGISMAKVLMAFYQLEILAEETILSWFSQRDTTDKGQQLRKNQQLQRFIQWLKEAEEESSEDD
UniProt P55884, whole entry, looked up: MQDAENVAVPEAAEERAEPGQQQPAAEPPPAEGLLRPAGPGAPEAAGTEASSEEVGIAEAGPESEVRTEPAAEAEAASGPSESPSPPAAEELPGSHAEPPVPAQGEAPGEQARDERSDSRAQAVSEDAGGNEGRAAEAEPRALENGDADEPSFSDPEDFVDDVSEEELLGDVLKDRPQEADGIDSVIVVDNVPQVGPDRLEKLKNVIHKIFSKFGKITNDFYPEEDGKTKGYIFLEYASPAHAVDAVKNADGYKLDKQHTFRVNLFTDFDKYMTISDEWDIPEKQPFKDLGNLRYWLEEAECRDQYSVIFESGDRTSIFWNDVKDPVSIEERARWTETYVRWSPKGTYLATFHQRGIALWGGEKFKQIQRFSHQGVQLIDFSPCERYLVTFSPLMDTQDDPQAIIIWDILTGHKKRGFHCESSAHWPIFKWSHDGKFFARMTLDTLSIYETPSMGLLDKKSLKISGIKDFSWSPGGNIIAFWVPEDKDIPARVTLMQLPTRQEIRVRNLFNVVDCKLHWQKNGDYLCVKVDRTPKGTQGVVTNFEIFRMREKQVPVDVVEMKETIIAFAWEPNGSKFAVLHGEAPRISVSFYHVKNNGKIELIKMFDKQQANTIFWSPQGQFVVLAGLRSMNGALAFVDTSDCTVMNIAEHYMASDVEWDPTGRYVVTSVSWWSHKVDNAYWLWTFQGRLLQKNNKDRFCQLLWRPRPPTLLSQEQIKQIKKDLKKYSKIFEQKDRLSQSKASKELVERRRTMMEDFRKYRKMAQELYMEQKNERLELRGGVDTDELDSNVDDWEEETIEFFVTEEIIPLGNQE
UniProt P23588, whole entry, looked up: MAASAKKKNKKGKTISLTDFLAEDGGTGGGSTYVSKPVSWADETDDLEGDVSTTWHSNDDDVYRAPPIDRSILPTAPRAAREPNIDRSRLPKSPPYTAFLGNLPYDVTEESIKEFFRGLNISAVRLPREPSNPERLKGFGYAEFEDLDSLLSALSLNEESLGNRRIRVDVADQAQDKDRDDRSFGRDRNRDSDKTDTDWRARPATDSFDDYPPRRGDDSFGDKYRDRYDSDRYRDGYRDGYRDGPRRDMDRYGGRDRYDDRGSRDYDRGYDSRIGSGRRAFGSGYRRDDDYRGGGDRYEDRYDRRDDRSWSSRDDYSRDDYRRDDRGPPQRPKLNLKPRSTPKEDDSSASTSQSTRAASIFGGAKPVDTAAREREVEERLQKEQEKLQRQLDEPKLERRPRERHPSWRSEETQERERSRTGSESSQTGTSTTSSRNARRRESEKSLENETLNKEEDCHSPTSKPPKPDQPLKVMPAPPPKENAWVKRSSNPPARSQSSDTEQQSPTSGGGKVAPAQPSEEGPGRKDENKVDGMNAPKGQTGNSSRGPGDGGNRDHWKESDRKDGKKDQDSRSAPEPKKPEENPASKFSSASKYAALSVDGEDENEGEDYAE
UniProt P29692: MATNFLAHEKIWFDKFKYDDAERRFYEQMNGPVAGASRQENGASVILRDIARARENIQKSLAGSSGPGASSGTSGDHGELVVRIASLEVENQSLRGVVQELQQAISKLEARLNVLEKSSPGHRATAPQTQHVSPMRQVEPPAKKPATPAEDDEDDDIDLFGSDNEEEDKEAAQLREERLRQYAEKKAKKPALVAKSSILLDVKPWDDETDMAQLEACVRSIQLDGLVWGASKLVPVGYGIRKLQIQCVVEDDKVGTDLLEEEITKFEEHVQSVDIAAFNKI
UniProt P38919, whole entry, looked up: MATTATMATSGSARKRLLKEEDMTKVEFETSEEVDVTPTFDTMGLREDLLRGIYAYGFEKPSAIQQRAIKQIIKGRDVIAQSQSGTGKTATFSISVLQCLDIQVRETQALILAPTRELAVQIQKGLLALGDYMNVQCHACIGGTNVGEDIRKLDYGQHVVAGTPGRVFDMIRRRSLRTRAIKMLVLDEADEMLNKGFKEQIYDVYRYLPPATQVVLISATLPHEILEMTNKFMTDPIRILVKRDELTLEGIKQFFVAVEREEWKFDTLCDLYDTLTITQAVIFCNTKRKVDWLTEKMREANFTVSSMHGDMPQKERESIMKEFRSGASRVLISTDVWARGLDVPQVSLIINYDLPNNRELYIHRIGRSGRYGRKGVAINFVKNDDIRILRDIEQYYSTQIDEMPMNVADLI
UniProt P63241: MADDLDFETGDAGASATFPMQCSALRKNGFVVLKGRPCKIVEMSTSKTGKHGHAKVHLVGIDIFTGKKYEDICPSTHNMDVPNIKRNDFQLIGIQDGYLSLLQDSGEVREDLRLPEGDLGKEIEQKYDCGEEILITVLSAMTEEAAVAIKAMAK
UniProt P60228, whole entry, looked up: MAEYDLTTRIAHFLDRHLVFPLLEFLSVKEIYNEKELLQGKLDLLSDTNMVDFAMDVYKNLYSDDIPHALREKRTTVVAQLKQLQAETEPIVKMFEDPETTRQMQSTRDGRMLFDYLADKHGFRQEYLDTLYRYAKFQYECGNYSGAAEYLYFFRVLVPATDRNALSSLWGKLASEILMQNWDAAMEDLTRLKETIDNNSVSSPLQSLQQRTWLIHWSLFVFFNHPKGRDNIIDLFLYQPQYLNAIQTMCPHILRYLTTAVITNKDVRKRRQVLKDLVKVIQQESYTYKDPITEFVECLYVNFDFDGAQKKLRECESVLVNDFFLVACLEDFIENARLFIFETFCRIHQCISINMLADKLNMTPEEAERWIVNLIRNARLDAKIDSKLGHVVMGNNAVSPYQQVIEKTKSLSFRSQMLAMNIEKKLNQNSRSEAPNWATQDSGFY
UniProt O94919: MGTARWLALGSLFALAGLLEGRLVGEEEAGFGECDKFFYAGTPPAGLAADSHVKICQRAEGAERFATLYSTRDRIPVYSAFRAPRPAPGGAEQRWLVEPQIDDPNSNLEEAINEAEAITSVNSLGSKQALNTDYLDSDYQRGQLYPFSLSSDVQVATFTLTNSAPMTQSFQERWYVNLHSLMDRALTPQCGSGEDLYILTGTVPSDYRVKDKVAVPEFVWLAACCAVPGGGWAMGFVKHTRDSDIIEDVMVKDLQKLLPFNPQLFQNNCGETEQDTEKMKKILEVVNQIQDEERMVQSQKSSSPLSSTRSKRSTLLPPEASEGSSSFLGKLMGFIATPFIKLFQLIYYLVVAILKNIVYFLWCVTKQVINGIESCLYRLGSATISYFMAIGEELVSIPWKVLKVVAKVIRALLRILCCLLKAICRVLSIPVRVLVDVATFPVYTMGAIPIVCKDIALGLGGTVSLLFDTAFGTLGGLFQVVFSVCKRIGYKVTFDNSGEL
UniProt P57772: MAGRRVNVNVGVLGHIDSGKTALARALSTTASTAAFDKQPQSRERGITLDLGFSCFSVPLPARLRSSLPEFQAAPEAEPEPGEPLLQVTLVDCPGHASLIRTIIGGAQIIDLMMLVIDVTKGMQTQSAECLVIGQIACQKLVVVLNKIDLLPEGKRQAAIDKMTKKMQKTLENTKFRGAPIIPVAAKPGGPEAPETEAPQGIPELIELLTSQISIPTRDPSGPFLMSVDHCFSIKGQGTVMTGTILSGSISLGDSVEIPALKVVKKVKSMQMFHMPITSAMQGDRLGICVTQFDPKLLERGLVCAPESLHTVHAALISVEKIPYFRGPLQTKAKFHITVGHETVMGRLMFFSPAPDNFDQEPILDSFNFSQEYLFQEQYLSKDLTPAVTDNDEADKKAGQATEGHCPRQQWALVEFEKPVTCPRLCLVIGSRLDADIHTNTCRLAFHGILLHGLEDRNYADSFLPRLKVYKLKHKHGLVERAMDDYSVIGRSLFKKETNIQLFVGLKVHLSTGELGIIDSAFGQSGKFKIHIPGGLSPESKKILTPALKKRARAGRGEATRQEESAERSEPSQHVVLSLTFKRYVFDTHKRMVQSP
UniProt Q9P0I2: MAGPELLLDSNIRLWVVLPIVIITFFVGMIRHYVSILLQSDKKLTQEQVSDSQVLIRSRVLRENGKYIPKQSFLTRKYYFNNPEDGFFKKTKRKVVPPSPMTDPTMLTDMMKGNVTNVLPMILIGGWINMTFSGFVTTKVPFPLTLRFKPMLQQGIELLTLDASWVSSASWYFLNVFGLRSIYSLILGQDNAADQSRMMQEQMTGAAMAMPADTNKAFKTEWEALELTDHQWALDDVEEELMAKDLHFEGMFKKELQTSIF
UniProt P13929, whole entry, looked up: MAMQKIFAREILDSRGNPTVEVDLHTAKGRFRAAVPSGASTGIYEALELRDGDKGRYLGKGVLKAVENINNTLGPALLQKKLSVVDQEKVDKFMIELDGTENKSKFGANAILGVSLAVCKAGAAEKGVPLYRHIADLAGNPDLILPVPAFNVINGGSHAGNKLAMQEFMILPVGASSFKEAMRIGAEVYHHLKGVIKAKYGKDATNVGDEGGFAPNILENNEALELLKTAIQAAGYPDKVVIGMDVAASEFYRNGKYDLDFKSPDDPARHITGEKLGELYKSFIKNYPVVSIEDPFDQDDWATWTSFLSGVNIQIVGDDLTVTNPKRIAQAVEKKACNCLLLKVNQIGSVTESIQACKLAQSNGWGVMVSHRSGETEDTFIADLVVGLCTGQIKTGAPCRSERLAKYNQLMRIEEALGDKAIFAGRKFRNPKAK
UniProt P06733, whole entry, looked up: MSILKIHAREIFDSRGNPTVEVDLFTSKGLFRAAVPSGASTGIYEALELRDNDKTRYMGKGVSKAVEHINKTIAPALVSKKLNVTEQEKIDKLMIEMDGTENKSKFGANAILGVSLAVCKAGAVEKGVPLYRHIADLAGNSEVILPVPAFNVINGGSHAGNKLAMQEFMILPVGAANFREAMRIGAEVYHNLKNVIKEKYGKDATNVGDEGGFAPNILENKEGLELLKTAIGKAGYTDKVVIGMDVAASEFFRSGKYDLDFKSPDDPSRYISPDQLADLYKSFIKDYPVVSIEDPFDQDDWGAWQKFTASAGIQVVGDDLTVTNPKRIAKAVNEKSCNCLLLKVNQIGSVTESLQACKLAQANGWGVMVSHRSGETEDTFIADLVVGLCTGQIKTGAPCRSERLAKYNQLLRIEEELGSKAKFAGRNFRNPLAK
UniProt Q8NFI3: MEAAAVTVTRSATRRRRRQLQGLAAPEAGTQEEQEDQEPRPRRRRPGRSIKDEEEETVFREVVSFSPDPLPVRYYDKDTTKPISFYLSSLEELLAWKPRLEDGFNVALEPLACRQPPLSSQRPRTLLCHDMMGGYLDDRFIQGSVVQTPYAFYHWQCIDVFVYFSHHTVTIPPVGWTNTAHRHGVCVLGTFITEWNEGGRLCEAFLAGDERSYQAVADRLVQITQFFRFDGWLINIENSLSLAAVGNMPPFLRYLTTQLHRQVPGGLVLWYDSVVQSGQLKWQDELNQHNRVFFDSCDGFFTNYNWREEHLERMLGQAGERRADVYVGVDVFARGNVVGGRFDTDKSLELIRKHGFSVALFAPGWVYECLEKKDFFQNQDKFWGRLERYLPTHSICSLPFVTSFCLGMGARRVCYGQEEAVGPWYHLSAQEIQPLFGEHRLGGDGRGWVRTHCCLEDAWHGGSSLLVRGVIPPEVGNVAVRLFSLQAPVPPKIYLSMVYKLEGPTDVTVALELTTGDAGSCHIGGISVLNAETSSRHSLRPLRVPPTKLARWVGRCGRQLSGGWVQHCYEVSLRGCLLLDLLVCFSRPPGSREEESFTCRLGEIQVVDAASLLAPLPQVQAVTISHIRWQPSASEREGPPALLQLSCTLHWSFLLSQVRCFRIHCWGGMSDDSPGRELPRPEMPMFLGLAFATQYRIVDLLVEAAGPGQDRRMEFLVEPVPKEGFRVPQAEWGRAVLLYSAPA

How the values were obtained:
Assay in all cases: log2 fold change, soluble protein after heating vs DMSO (PISA); higher = thermal stabilisation; K562 cells, 10 uM, 30 min; active = over 0.2 and 3.5 SD of the protein, either way, in both replicates (recomputed)
[1] = compound: CS(=O)(=O)c1ccc(-c2cnc(N)c(C(=O)Nc3ccccc3)n2)cc1
Method in brief: (§1)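 Thermal stability values are relative to control samples and come from duplicates. They are expressed as log2 fold changes. For measurement, K562 cells (2×10^6 cells/mL) received 10 μM compound for 30 min, and aliquots were heated for 3 min over 48°C-58°C, pooled, and extracted at 4°C in PBS with 0.5% NP-40. Soluble protein, the supernatant after 21,000xg for 90 min, was quantified by TMTpro 16plex LC-MS/MS with equalised channel sums.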

[2] = compound: C[C@@H](Oc1cc(-c2cnn(C3CCNCC3)c2)cnc1N)c1c(Cl)ccc(F)c1Cl [crizotinib]
Method in brief: as §1

[3] = compound: C[C@@H]1COCCN1C2=NC(=NC(=C2)C3(CC3)S(=O)(=O)C)C4=C5C=CNC5=CC=C4
Method in brief: as §1

[4] = compound: C[C@H](C1=CC=C(C=C1)C(=O)NC2=C3C=CNC3=NC=C2)N
Method in brief: as §1

[5] = compound: C[C@H](Nc1ncnc2nc[nH]c12)c1cc2cccc(Cl)c2c(=O)n1-c1ccccc1 [duvelisib]
Method in brief: as §1

[6] = compound: Cc1cc(Nc2cc(CN3CCOCC3)c3nc(C)c(Cc4ccc(Cl)cc4F)n3n2)n[nH]1 [gandotinib]
Method in brief: as §1

[7] = compound: Cc1cc(Nc2cc(N3CCN(C)CC3)nc(Sc3ccc(NC(=O)C4CC4)cc3)n2)n[nH]1 [tozasertib]
Method in brief: as §1

[8] = compound: Cc1cc(SCc2sc(-c3ccc(C(F)(F)F)cc3)nc2C)ccc1OCC(=O)O
Method in brief: as §1

[9] = compound: Cc1ccc(-n2nc(C(C)(C)C)cc2NC(=O)Nc2ccc(OCCN3CCOCC3)c3ccccc23)cc1 [doramapimod]
Method in brief: as §1

[10] = compound: Cc1ccc(C(=O)N(CCCN)[C@@H](c2nc3cc(Cl)ccc3c(=O)n2Cc2ccccc2)C(C)C)cc1 [ispinesib]
Method in brief: as §1

| Target | log2 fold change [1] | log2 fold change [2] | log2 fold change [3] | log2 fold change [4] | log2 fold change [5] | log2 fold change [6] | log2 fold change [7] | log2 fold change [8] | log2 fold change [9] | log2 fold change [10] |
| --- | --- | --- | --- | --- | --- | --- | --- | --- | --- | --- |
| EI24 (UniProt O14681) | inactive: 0.005 | inactive: -0.006 | inactive: 0.025 | inactive: -0.017 | inactive: 0.053 | inactive: -0.015 | inactive: -0.034 | inactive: -0.027 | inactive: -0.106 | inactive: -0.028 |
| EEF1A2 (UniProt Q05639) | inactive: 0.046 | inactive: -0.046 | inactive: 0.064 | inactive: -0.004 | inactive: 0.067 | inactive: -0.019 | inactive: -0.025 | inactive: 0.019 | inactive: -0.012 | inactive: -0.035 |
| ENOPH1 (UniProt Q9UHY7) | inactive: 0.173 | inactive: -0.28 | inactive: 0.031 | inactive: -0.095 | inactive: 0.132 | inactive: 0.004 | inactive: 0.044 | inactive: 0.193 | inactive: -0.024 | inactive: -0.051 |
| EIF2B5 (UniProt Q13144) | inactive: 0.023 | inactive: -0.031 | inactive: -0.097 | inactive: 0.098 | inactive: -0.052 | inactive: -0.028 | inactive: 0.012 | inactive: 0.036 | inactive: 0.006 | inactive: -0.004 |
| EHMT2 (UniProt Q96KQ7) | inactive: 0.03 | inactive: -0.041 | inactive: 0.01 | inactive: -0.01 | inactive: 0.086 | inactive: 0.052 | inactive: 0.088 | inactive: 0.145 | inactive: -0.048 | inactive: 0.022 |
| ELOB (UniProt Q15370) | inactive: 0.012 | inactive: 0.054 | inactive: 0.024 | inactive: -0.128 | inactive: 0.085 | inactive: 0.027 | inactive: 0.01 | inactive: -0.008 | inactive: 0.054 | inactive: 0.092 |
| EIF3B isoform 2 (UniProt P55884) | inactive: -0.017 | inactive: -0.1 | inactive: -0.078 | inactive: 0.181 | inactive: -0.042 | inactive: 0.03 | inactive: 0.089 | inactive: 0.109 | inactive: 0.074 | inactive: -0.164 |
| EIF4B (UniProt P23588) | inactive: -0.025 | inactive: 0.029 | inactive: 0.03 | inactive: -0.035 | inactive: 0.021 | inactive: -0.028 | inactive: -0.019 | inactive: -0.037 | inactive: -0.01 | inactive: 0.003 |
| ELAC1 (UniProt Q9H777) | inactive: -0.045 | inactive: 0.011 | inactive: -0.13 | inactive: -0.137 | – | inactive: -0.021 | – | inactive: 0.004 | inactive: 0.007 | – |
| EIF4ENIF1 isoform 3 (UniProt Q9NRA8) | inactive: -0.034 | inactive: -0.098 | inactive: -0.139 | inactive: 0.018 | inactive: 0.038 | inactive: 0.03 | inactive: 0.011 | inactive: 0.067 | inactive: -0.037 | inactive: -0.035 |
| ELAC2 (UniProt Q9BQ52) | inactive: 0.053 | inactive: -0.021 | inactive: 0.026 | inactive: -0.02 | inactive: 0.018 | inactive: 0.018 | inactive: -0.001 | inactive: 0.008 | inactive: 0.002 | inactive: 0.025 |
| EEF1D isoform 2 (UniProt P29692) | inactive: 0.043 | inactive: 0.004 | inactive: -0.028 | inactive: 0.066 | – | inactive: -0.057 | – | inactive: 0.04 | inactive: 0.026 | inactive: -0.055 |
| EIF4A3 (UniProt P38919) | inactive: 0.028 | inactive: 0.179 | inactive: 0.057 | inactive: -0.001 | inactive: 0.009 | inactive: 0.048 | inactive: 0 | inactive: 0.026 | inactive: -0.045 | inactive: 0.041 |
| EIF5A isoform 2 (UniProt P63241) | inactive: -0.007 | inactive: -0.039 | inactive: 0.091 | inactive: -0.102 | inactive: 0.009 | inactive: -0.062 | inactive: 0.084 | inactive: 0.111 | inactive: -0.009 | inactive: 0.021 |
| EIF3E (UniProt P60228) | inactive: 0 | inactive: -0.246 | inactive: -0.052 | inactive: 0.204 | inactive: -0.06 | inactive: 0.087 | inactive: 0.046 | inactive: 0.247 | inactive: 0.055 | inactive: -0.155 |
| EMD (UniProt P50402) | inactive: 0.042 | active: -0.215 | inactive: 0.019 | inactive: 0.018 | – | inactive: -0.047 | – | inactive: 0.015 | inactive: 0.018 | inactive: -0.092 |
| ENDOG (UniProt Q14249) | inactive: -0.016 | inactive: 0.047 | inactive: 0.03 | inactive: -0.002 | inactive: -0.029 | inactive: -0.095 | inactive: -0.039 | inactive: 0 | inactive: -0.036 | inactive: -0.022 |
| ELP5 isoform 4 (UniProt Q8TE02) | inactive: 0.019 | inactive: 0.042 | inactive: 0.007 | inactive: -0.016 | inactive: 0.02 | inactive: 0.01 | inactive: -0.063 | inactive: -0.051 | inactive: -0.061 | inactive: 0.012 |
| ENDOD1 (UniProt O94919) | inactive: 0.009 | inactive: 0.09 | inactive: -0.04 | inactive: -0.003 | inactive: 0.036 | inactive: 0.052 | inactive: -0.043 | inactive: -0.065 | inactive: -0.03 | inactive: -0.009 |
| EMC8 (UniProt O43402) | inactive: -0.018 | inactive: 0.012 | inactive: 0.067 | inactive: -0.024 | inactive: 0.005 | inactive: 0.04 | inactive: -0.032 | inactive: -0.021 | inactive: -0.016 | inactive: 0.051 |
| EEFSEC (UniProt P57772) | inactive: -0.043 | inactive: -0.057 | inactive: -0.014 | inactive: 0.156 | inactive: -0.042 | inactive: 0.081 | inactive: 0.001 | inactive: 0.06 | inactive: 0.043 | inactive: -0.11 |
| EMC3 (UniProt Q9P0I2) | inactive: 0.032 | inactive: 0.012 | inactive: 0.102 | inactive: -0.084 | inactive: 0.057 | inactive: -0.251 | inactive: -0.015 | inactive: -0.037 | inactive: -0.02 | inactive: 0.002 |
| ENO3 (UniProt P13929) | inactive: -0.049 | inactive: 0.027 | inactive: -0.004 | inactive: -0.129 | inactive: 0.088 | inactive: -0.003 | inactive: 0.006 | inactive: 0.068 | inactive: -0.113 | inactive: 0.082 |
| ELMOD2 (UniProt Q8IZ81) | inactive: -0.01 | inactive: 0.011 | inactive: -0.007 | inactive: -0.064 | inactive: 0.014 | inactive: -0.045 | inactive: -0.007 | inactive: 0.05 | inactive: -0.048 | inactive: 0.176 |
| ENO1 (UniProt P06733) | inactive: 0.009 | inactive: 0.022 | inactive: 0.009 | inactive: -0.038 | inactive: 0.018 | inactive: -0.02 | inactive: -0.038 | inactive: -0.04 | inactive: -0.02 | inactive: 0.008 |
| EMC10 (UniProt Q5UCC4) | inactive: 0.006 | inactive: 0.022 | inactive: 0.022 | inactive: -0.03 | inactive: 0.018 | inactive: -0.041 | inactive: -0.002 | inactive: -0.016 | inactive: 0.022 | inactive: -0.006 |
| ENGASE (UniProt Q8NFI3) | inactive: 0.001 | inactive: -0.031 | inactive: 0 | inactive: 0.025 | inactive: 0.042 | inactive: -0.046 | inactive: 0.027 | inactive: 0.03 | inactive: 0.005 | inactive: -0.029 |

Not a retest: an excerpt of the list.

| Target | log2 fold change [1] | log2 fold change [2] | log2 fold change [3] | log2 fold change [4] | log2 fold change [5] | log2 fold change [6] | log2 fold change [7] | log2 fold change [8] | log2 fold change [9] | log2 fold change [10] |
| --- | --- | --- | --- | --- | --- | --- | --- | --- | --- | --- |
| EIF2B5 (UniProt Q13144) | inactive: 0.023 | inactive: -0.031 | inactive: -0.097 | inactive: 0.098 | inactive: -0.052 | inactive: -0.028 | inactive: 0.012 | inactive: 0.036 | inactive: 0.006 | inactive: -0.004 |
| EHMT2 (UniProt Q96KQ7) | inactive: 0.03 | inactive: -0.041 | inactive: 0.01 | inactive: -0.01 | inactive: 0.086 | inactive: 0.052 | inactive: 0.088 | inactive: 0.145 | inactive: -0.048 | inactive: 0.022 |
